Laboratory results published in patent publication US7420033B2, “Composition of lactoferrin related peptides and uses thereof” (Agennix, Inc., priority 2004, dated 2008).
At least one peptide structure holds a part that was inferred or is arguable (an end, a ring closure or a residue). Where no end group is shown, it is not given here.

Test system: active chromatin-induced SLE-like disease
Assay: Active chromatin-induced SLE-like mouse model
Type: in vivo, BALB/c mice
Settings: oral gavage once-a-day, 5 to 20 mg/kg from day 30

Question: For “RRRRRRSVQWQAVSQPIATIQFQWQRNMRKRRR [LPF-35]”, which “indicators of active chromatin-induced SLE-like disease” value is on record?
Answer: attenuates
